For 1 substance, binding results are on record in paper PMC5629360.

Chains of the proteins cited; added tags and fusions are not shown.
UniProt O08586: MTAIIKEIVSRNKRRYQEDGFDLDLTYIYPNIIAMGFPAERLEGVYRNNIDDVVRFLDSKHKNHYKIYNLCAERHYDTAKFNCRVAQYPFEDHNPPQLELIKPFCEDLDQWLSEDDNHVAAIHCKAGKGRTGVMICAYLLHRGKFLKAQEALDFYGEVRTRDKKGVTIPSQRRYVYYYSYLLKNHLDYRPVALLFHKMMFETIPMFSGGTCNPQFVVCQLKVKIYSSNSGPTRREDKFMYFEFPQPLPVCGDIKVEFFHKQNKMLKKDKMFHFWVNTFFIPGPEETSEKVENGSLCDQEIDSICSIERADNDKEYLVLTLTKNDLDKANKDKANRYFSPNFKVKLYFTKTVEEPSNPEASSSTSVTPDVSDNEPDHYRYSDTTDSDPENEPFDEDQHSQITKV

No constants are given. Whether binding was seen depends on the method and setting. In cells and extracts the contact can be indirect. Some results given as binding are weak or reduced against the parent protein; the word gives no strength. Where a sequence is shown, tags or fusion partners need not be part of it.

The assay concerns the target T1, StrepII-tagged B7-H4 (UniProt Q7TSP5).
T1 sequence: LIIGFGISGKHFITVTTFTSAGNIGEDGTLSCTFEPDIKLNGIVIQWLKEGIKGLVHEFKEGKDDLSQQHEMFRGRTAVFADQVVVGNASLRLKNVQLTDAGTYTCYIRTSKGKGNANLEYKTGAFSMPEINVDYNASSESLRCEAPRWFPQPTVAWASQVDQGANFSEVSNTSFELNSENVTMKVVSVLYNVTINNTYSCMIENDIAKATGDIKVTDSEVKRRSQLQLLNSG
Put plainly: co-IP; lysates (also cytoplasmic and nuclear samples) of 293T cells overexpressing StrepII-tagged B7-H4 with Flag-tagged PTEN or HA-tagged AKT; precipitated using strep-tactin sepharose, western blotting for Flag, HA, endogenous AKT or endogenous PTEN. In general terms: Immunoblotting shows a protein as a band on a membrane.

In the case of “Flag-tagged PTEN (from UniProt O08586 1-403)”, the binding entry was “binds”.
